Measured data: PubChem BioAssay AID504784 (Drosophila RNAi Screening Center, 2011)
Aim: 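Genome-wide knock-down for genes giving too much or too little stored lipid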 (primary screen). Cell system: Drosophila Kc167 embryonic cells. Knock-down reagent: long dsRNA against Drosophila genes, about 250 ng dsRNA per well. Time to read-out: 4 days. Challenge: cells fed 400 µM oleic acid bound to BSA. Measured: 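Cells imaged and segmented; ratio of lipid droplet area to nuclear area, log-transformed, then normalised as a B-score over the screen; higher means more stored lipid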. Scale: droplet/nuclear area B-score: higher = more stored lipid (overstorage).
The deposit covers about 17,000 reagents; shown is a random part of those with a known target gene and a result. 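Each column is one replicate's B-score; the combined score over replicates was not deposited, so single values may mislead.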 A plus sign joins genes that one reagent is predicted to hit. Not all columns of the deposit are shown.

beat-Ia [DRSC03489] scored droplet/nuclear area B-score, replicate 1 = 0.349.
CG32507 [DRSC20421] showed droplet/nuclear area B-score, replicate 1 = -2.66.
Knock-down of CG30269 [DRSC04158] resulted in: droplet/nuclear area B-score, replicate 1 = -0.153.
After knock-down of CG13814 (retired record) [DRSC10069], the screen gave droplet/nuclear area B-score, replicate 1 = 2.46.
Ubx [DRSC16891] scored droplet/nuclear area B-score, replicate 1 = -0.436.
lncRNA:CR42862 [DRSC08348] gave droplet/nuclear area B-score, replicate 1 = -1.54.
After knock-down of Nak [DRSC03379] the results were droplet/nuclear area B-score, replicate 1 = -0.0351.
CG6885 [DRSC10740] gave droplet/nuclear area B-score, replicate 1 = 0.982.
Knock-down of l(3)neo43 [DRSC14988] gave: droplet/nuclear area B-score, replicate 1 = -0.788.

2 neighbouring records already listed:
CG30269 [DRSC04158]: droplet/nuclear area B-score, replicate 1 = -0.153
CG13814 (retired record) [DRSC10069]: droplet/nuclear area B-score, replicate 1 = 2.46

More results:
Against CG31268 [DRSC13203] the deposit lists droplet/nuclear area B-score, replicate 1 = 0.00469.
After knock-down of Orcokinin [DRSC04202], the screen gave droplet/nuclear area B-score, replicate 1 = -0.0883.
With knock-down of Cpr65Ax2 + Cpr65Ax1 [DRSC10341] the results were droplet/nuclear area B-score, replicate 1 = -0.219.
With knock-down of Cpr65Ax2 + Cpr65Ax1 [DRSC10344] the results were droplet/nuclear area B-score, replicate 1 = 0.637.
Silencing of CG15475 [DRSC02486] resulted in: droplet/nuclear area B-score, replicate 1 = 0.38.
Knock-down of csw [DRSC18756] came out at: droplet/nuclear area B-score, replicate 1 = 2.47.
With knock-down of csw [DRSC23326] the results were droplet/nuclear area B-score, replicate 1 = -1.96.
